Results are given in words; binding and its absence hold for the method and conditions named. Binding can be weak; no strength is given.
Target: Cynomolgus CD73 ECD (cynomolgus)
Assay: SPR (ProteOn XPR36), antibody captured by anti-human Fc, CD73 ECD in the mobile phase

B1: MEDI9447 (antibody, human IgG1, lambda, V domains shown)
VH: EVQLLESGGGLVQPGGSLRLSCAASGFTFSSYAYSWVRQAPGKGLEWVSAISGSGGRTYYADSVKGRFTISRDNSKNTLYLQMNSLRAEDTAVYYCARLGYGRVDEWGRGTLVTVSS
VL: QSVLTQPPSASGTPGQRVTISCSGSLSNIGRNPVNWYQQLPGTAPKLLIYLDNLRLSGVPDRFSGSKSGTSASLAISGLQSEDEADYYCATWDDSHPGWTFGGGTKLTVLG
binding: binds

Reference: patent US20180125973A1
